37 targets from the supplement of paper PMC12819154, “High-throughput peptide-centric local stability assay extends protein–ligand identification to membrane proteins, tissues and bacteria” (Nature Structural & Molecular Biology, 2025) can be followed below.

Chains of the proteins cited; added tags and fusions are not shown. Lines headed by an entry give the natural chain unless they say otherwise; changes in a name come on top.
UniProt Q9UI09, whole entry: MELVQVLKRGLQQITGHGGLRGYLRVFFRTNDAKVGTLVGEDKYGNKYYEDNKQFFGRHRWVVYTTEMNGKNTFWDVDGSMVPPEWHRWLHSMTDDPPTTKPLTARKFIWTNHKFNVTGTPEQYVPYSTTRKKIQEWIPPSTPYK
UniProt Q9UK80: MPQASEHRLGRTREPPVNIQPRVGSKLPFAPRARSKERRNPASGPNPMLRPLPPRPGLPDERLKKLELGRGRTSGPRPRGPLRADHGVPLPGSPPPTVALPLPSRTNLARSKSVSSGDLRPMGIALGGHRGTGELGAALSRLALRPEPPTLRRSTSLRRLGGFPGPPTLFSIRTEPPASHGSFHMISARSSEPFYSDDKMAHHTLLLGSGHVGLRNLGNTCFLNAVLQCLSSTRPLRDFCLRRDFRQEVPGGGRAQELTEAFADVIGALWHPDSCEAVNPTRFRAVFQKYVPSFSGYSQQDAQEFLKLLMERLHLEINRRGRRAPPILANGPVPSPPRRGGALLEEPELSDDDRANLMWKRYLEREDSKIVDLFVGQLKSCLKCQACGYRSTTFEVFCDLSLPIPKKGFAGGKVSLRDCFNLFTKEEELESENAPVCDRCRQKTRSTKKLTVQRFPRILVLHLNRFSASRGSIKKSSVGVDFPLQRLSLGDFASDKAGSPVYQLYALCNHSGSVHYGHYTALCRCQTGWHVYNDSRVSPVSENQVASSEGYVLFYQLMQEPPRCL
UniProt Q9UKJ3: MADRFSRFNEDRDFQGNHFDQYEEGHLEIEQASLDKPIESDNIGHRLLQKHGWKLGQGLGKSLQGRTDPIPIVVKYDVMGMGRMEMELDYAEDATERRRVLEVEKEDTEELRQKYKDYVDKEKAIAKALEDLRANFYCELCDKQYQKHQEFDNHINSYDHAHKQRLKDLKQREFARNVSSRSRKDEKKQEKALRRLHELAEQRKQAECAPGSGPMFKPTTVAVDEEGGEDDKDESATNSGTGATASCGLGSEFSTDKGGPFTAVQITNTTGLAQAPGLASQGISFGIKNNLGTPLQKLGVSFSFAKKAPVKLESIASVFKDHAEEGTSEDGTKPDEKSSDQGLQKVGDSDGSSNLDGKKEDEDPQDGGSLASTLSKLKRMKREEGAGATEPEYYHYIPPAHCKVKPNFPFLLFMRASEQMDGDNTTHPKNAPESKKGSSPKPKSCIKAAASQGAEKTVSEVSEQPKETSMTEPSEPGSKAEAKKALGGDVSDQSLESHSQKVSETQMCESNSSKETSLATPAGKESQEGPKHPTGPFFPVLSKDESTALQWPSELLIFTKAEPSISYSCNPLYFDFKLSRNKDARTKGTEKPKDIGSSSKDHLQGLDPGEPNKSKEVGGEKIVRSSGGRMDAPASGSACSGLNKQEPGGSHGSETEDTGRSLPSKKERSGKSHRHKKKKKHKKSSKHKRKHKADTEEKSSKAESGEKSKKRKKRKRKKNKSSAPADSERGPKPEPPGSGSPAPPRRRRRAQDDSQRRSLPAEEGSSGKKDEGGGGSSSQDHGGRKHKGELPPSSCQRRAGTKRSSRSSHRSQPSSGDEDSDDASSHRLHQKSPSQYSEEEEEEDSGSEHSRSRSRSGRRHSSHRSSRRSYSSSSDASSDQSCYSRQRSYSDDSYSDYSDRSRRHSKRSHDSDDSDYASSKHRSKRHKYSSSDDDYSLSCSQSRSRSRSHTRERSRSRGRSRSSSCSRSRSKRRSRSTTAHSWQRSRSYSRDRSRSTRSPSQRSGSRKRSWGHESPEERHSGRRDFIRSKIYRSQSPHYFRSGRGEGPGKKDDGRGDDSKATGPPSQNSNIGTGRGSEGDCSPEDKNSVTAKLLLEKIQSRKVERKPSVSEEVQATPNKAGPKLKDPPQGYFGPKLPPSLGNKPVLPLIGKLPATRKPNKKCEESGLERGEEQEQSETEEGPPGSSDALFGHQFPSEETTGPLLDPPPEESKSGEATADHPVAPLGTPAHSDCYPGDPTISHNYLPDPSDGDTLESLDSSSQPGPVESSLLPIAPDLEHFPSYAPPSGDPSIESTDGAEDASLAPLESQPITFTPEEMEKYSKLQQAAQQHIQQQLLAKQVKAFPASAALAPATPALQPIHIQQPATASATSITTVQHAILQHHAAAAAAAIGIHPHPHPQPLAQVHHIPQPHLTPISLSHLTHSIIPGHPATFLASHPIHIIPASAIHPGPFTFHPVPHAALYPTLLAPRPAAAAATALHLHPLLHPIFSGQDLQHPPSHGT
UniProt Q9UMX0, whole entry: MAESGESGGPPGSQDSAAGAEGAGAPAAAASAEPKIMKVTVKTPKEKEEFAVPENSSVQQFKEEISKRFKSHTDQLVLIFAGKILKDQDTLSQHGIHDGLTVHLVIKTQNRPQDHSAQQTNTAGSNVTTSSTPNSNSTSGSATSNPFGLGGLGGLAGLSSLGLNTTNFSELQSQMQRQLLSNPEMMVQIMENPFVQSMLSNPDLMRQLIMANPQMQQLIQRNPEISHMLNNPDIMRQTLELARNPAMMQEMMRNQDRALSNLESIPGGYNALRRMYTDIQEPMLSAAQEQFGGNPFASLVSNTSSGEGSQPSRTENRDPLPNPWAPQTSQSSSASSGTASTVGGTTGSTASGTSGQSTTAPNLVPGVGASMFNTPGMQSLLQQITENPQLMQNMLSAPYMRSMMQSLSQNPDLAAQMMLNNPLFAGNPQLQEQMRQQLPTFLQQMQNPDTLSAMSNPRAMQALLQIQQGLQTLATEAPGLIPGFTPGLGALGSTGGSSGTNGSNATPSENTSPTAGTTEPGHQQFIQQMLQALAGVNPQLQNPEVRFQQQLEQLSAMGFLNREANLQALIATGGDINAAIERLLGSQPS
UniProt Q9UNH5: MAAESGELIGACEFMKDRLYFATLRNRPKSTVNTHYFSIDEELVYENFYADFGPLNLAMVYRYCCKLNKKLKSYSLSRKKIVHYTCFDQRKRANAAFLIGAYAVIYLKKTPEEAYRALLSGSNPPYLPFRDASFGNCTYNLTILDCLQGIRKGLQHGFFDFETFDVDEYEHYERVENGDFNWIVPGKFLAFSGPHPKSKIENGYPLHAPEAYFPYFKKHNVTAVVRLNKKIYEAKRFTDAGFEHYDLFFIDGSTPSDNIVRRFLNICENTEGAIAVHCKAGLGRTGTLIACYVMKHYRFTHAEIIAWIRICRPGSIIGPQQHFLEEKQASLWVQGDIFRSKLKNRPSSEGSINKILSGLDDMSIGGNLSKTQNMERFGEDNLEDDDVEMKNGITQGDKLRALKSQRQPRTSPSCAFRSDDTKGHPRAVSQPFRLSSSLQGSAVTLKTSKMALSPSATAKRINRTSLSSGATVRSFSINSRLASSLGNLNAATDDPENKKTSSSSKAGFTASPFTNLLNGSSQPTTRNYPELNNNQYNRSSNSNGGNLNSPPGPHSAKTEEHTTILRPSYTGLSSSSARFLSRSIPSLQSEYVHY
UniProt Q9UQ49: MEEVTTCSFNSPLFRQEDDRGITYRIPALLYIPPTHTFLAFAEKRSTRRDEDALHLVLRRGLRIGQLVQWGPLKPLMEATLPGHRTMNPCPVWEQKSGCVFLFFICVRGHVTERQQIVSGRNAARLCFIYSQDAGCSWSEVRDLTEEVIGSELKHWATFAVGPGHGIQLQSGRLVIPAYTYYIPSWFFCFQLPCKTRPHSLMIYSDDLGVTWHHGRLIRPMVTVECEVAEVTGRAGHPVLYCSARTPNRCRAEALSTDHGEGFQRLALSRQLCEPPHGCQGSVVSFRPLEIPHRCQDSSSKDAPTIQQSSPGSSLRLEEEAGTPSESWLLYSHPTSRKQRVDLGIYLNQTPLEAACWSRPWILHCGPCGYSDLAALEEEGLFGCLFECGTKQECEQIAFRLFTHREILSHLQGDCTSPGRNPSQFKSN
UniProt Q9UQ88: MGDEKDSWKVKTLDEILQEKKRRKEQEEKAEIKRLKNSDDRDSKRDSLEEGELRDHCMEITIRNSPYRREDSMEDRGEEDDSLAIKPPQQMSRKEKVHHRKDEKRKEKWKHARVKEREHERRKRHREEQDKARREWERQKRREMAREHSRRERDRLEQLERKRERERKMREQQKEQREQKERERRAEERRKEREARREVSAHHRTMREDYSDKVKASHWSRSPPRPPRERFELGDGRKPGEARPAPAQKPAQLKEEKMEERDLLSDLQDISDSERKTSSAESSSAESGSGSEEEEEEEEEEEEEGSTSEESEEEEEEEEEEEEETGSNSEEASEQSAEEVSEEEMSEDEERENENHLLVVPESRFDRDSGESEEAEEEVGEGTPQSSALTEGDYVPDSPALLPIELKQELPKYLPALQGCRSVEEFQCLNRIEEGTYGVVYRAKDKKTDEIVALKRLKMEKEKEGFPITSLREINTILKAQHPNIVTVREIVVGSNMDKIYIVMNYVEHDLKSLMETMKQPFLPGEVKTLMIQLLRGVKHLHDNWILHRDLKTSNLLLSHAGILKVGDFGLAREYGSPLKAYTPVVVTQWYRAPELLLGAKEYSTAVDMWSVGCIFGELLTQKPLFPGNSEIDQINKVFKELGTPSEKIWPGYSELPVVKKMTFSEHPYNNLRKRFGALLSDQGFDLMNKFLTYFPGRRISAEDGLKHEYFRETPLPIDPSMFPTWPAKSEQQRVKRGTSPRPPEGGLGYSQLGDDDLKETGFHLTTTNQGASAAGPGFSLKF
UniProt Q9UK59: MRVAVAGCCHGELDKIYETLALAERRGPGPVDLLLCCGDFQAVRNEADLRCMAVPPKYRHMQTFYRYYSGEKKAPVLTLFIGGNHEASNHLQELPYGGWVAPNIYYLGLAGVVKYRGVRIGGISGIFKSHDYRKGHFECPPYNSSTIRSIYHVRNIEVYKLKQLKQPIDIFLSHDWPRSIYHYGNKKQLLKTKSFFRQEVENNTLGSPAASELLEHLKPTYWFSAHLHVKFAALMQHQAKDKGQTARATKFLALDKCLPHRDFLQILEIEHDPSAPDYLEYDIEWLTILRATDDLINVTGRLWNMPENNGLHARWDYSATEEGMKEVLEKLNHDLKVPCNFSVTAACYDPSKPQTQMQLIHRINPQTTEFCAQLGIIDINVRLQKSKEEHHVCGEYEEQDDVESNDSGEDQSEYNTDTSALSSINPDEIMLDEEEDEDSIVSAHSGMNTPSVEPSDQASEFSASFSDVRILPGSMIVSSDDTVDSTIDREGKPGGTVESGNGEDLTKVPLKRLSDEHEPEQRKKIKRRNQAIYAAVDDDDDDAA
UniProt Q9UPW6: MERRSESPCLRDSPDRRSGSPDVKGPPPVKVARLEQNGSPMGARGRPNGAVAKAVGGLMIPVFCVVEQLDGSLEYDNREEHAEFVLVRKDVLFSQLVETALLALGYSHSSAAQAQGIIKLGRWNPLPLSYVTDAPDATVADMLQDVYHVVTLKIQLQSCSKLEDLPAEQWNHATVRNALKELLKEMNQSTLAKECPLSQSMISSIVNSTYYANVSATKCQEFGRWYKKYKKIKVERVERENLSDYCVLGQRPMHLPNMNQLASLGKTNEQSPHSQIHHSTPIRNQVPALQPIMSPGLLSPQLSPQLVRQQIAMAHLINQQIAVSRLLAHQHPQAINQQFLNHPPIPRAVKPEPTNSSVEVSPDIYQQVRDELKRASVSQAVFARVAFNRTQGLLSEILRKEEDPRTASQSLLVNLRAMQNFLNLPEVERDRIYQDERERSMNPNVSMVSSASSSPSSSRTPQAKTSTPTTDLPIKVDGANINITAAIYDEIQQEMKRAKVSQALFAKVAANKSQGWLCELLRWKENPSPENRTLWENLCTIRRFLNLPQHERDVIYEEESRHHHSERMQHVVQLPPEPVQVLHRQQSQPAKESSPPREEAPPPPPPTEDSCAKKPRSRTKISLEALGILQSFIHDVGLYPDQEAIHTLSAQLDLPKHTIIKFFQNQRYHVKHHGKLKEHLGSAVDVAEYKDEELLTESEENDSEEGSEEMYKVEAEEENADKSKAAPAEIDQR
UniProt Q9UN81: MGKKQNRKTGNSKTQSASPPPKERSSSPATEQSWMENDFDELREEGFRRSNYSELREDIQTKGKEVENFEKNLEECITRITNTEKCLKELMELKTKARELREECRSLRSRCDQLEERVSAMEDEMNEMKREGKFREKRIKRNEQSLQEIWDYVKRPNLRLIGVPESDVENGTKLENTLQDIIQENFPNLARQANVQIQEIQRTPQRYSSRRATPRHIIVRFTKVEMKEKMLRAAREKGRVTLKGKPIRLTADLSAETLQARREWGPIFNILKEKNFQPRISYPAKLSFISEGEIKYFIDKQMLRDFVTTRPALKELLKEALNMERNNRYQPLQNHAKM
UniProt Q9UIM3: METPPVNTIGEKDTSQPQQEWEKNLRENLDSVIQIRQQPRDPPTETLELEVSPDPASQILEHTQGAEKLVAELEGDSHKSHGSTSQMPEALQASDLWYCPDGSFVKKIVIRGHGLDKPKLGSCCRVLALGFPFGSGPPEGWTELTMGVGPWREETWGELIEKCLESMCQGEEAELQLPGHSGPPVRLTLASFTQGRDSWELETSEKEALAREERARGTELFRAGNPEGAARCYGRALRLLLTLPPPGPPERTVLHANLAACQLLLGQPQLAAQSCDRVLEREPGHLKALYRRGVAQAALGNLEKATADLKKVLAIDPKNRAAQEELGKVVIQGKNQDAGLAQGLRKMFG

Some of the results follow. Most values lie at the level of the controls, where differences are scatter.

Compound in this experiment: Cc1nc(Nc2ncc(C(=O)Nc3c(C)cccc3Cl)s2)cc(N2CCN(CCO)CC2)n1 [dasatinib]
Description: log2 fold change of tryptic peptide abundance, ligand vs vehicle (limited proteolysis) (log2 ratio); higher = more trypsin-susceptible (destabilized). To be noted: ligand concentration: 5 uM; sample: K562 cleared lysate.
With “ICAM5 (peptide sequence: GNPEPSVHCAR, peptide start residue: 435) (UniProt Q9UMF0)”, the log2 fold change is -0.277.
As for “UniProt Q9UHD8 (peptide sequence: VVNIVPVIAK, peptide start residue: 436)”, the log2 fold change is -0.204.
Under “NDUFA12 (peptide sequence: WLHSMTDDPPTTKPLTAR, peptide start residue: 89) (UniProt Q9UI09)” stands 0.000525; under “BAIAP2 (peptide sequence: FCFLVEK, peptide start residue: 194) (UniProt Q9UQB8)”, -0.223.
Regarding “UniProt Q9UPN7 (peptide sequence: VMGILINR, peptide start residue: 127)”, the log2 fold change was -0.223.
Under “UniProt Q9UK61 (peptide sequence: SVGGDSDTEDMR, peptide start residue: 694)” stands 1.07; under “UniProt Q9UK80 (peptide sequence: TEPPASHGSFHMISAR, peptide start residue: 174)”, -0.0055.
Under “KMT2B (peptide sequence: ATSLELPMAMR, peptide start residue: 2555) (UniProt Q9UMN6)” stands -0.26.
For “HECTD1 (peptide sequence: LVVVELNNR, peptide start residue: 106) (UniProt Q9ULT8)” the value was -0.189; for “CAMK2A (peptide sequence: DHQKLER, peptide start residue: 54) (UniProt Q9UQM7)”, -0.0771.
On to “GPATCH8 (peptide sequence: LPPSLGNKPVLPLIGKLPATR, peptide start residue: 1135) (UniProt Q9UKJ3)”, for which the log2 fold change is -1.28.
For “UBQLN1 (peptide sequence: EKEEFAVPENSSVQQFK, peptide start residue: 46) (UniProt Q9UMX0)” the value was -0.0774; for “WDR3 (peptide sequence: NLLVTSGKDTMVK, peptide start residue: 162) (UniProt Q9UNX4)”, -0.248; for “FEM1B (peptide sequence: STPLIIAAR, peptide start residue: 47) (UniProt Q9UK73)”, 0.131.
Take “CDC14A (peptide sequence: TSLSSGATVR, peptide start residue: 464) (UniProt Q9UNH5)”: the log2 fold change was 0.391.
Consider “SOX13 (peptide sequence: QQQQLIQQQHK, peptide start residue: 201) (UniProt Q9UN79)”, for which the log2 fold change was -0.0356.
Take “UniProt Q9UKZ1 (peptide sequence: LLTAAEQR, peptide start residue: 13)”: the log2 fold change worked out at 0.152.
For “LSM7 (peptide sequence: QLGLVVCR, peptide start residue: 70) (UniProt Q9UK45)”, the log2 fold change was -0.0733.
On to “CDC23 (peptide sequence: KKDDETVDSLGPLEK, peptide start residue: 129) (UniProt Q9UJX2)”, for which the log2 fold change is -0.399.
On to “NIP7 (peptide sequence: MRPLTEEETR, peptide start residue: 1) (UniProt Q9Y221)”, for which the log2 fold change amounted to 0.621.
Under “PRELID1 (peptide sequence: GFEYILAK, peptide start residue: 161) (UniProt Q9Y255)” stands -0.411; under “UniProt Q9UII2 (peptide sequence: HHEEEIVHHK, peptide start residue: 73)”, 0.131; under “UniProt Q9UKT7 (peptide sequence: DSDRNSSEEGTAEK, peptide start residue: 7)”, 0.665.
For “NEU3 (peptide sequence: AEALSTDHGEGFQR, peptide start residue: 252) (UniProt Q9UQ49)”, the log2 fold change amounted to 0.0755.
For “TUBD1 (peptide sequence: AVLVDMEPK, peptide start residue: 63) (UniProt Q9UJT1)” the value was 0.242; for “MAGED2 (peptide sequence: SSEAVIWEVLRK, peptide start residue: 386) (UniProt Q9UNF1)”, -0.242.
Take “UniProt Q9UQ88 (peptide sequence: SVEEFQCLNR, peptide start residue: 422)”: the log2 fold change turned out to be 0.12.
For “CEP164 (peptide sequence: EQLEGERK, peptide start residue: 753) (UniProt Q9UPV0)” the value was -0.529.
Consider “DBR1 (peptide sequence: LWNMPENNGLHAR, peptide start residue: 302) (UniProt Q9UK59)”, for which the log2 fold change was -0.334.
Under “TPX2 (peptide sequence: HTVPCMPPAK, peptide start residue: 194) (UniProt Q9ULW0)” stands 0.347.
For “TRPS1 (peptide sequence: GSVINQNDLAK, peptide start residue: 478) (UniProt Q9UHF7)” the value was -0.478.
For “SATB2 (peptide sequence: AAPAEIDQR, peptide start residue: 725) (UniProt Q9UPW6)”, the log2 fold change was 0.132.
Under “L1RE1 (peptide sequence: YQPLQNHAK, peptide start residue: 329) (UniProt Q9UN81)” stands -0.103.
Consider “FKBPL (peptide sequence: VLEREPGHLK, peptide start residue: 278) (UniProt Q9UIM3)”, for which the log2 fold change stood at 0.427.
Under “PRR12 (peptide sequence: TSHPETDILHR, peptide start residue: 37) (UniProt Q9ULL5)” stands -0.346.
Under “TRAPPC2L (peptide sequence: KLHNSYTDVMCNPFYNPGDR, peptide start residue: 102) (UniProt Q9UL33)” stands -0.166; under “PHF8 (peptide sequence: ATLIIRPK, peptide start residue: 666) (UniProt Q9UPP1)”, -0.113.
